# Reference: article PMC5996148
# The list shows a part of the results.
# Tests used:
# Test in all cases: protein microarray (ProtoArray v5.0), streptavidin-Alexa Fluor 647
# Conditions in all cases: 3'-biotin; 20 mM Tris (pH 7.5), 5 mM MgCl2, 100 mM KCl, 0.1% Tween-20, A/T-rich and random oligonucleotide blockers; temperature not stated; high values mean tight binding
# OPA3 (human) = test system: OPA3 (human)
# OR2G3 (human) = test system: OR2G3 (human)
# OR4D6 (human) = test system: OR4D6 (human)
# OR9G1 (human) = test system: OR9G1 (human)
# ORM1 (human) = test system: ORM1 (human)
# ORM2 (human) = test system: ORM2 (human)
# ORMDL2 (human) = test system: ORMDL2 (human)
# OSBPL1A (human) = test system: OSBPL1A (human)
# OSBPL2 (human) = test system: OSBPL2 (human)
# OSBPL3 (human) = test system: OSBPL3 (human)
sequence,measurement,setting,value
GGGAGGCTGAGGCAGG [G4-1 biotinylated (PQS2)],binding signal,OPA3 (human),-0.343 z-score
same,binding signal,OR2G3 (human),-0.235 z-score
same,binding signal,OR4D6 (human),-0.314 z-score
same,binding signal,OR9G1 (human),-0.303 z-score
same,binding signal,ORM1 (human),-0.347 z-score
same,binding signal,ORM2 (human),-0.341 z-score
same,binding signal,ORMDL2 (human),-0.317 z-score
same,binding signal,OSBPL1A (human),-0.336 z-score
same,binding signal,OSBPL2 (human),-0.313 z-score
same,binding signal,OSBPL3 (human),-0.268 z-score
